Laboratory results published in the supplement of paper PMC10849652.
The list shows a part of the results.

By UniProt entry, the sequences of proteins in these tests, tags left out. Where a name states a change or a piece, a line headed by the entry shows the natural chain unless it says otherwise.
UniProt Q8NG68: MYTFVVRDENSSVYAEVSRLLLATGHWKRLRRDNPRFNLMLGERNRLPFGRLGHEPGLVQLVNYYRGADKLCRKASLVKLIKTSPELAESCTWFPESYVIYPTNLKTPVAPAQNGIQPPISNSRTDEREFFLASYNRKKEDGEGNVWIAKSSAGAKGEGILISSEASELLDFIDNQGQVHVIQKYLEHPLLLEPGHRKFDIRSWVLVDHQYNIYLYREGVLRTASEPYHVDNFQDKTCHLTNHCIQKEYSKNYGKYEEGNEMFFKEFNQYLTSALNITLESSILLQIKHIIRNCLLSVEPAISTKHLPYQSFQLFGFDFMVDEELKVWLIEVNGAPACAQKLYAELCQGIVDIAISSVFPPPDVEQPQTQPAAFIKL
UniProt Q9BSL1: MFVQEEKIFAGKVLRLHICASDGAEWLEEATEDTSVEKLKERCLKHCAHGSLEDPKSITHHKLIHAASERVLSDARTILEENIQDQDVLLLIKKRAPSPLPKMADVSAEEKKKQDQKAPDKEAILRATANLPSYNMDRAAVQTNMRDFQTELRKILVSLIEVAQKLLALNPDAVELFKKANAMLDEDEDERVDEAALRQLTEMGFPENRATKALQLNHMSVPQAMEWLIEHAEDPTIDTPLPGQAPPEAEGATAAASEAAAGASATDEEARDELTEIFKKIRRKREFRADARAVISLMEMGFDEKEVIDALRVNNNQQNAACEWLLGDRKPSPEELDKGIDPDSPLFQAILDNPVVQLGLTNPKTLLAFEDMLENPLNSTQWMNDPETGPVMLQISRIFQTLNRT
UniProt Q8N5M4: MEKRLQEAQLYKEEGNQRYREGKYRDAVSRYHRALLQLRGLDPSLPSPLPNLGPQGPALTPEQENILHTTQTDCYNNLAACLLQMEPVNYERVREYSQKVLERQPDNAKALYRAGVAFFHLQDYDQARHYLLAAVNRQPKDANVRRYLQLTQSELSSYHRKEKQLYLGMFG
UniProt P61088: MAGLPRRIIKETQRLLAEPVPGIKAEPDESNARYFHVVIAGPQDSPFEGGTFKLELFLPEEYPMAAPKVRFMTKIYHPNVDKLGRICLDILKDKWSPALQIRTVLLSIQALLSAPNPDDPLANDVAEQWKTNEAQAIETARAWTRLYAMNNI
UniProt Q96J42: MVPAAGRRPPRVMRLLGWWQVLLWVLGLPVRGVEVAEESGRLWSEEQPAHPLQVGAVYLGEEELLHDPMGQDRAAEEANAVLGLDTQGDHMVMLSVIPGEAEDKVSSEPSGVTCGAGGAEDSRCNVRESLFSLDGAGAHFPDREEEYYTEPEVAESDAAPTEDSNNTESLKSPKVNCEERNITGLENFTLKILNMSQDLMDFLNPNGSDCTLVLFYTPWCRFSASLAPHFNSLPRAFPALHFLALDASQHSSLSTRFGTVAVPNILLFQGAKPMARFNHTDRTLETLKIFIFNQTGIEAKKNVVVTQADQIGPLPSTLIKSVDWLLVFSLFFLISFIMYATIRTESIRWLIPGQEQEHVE
UniProt Q8NBM4: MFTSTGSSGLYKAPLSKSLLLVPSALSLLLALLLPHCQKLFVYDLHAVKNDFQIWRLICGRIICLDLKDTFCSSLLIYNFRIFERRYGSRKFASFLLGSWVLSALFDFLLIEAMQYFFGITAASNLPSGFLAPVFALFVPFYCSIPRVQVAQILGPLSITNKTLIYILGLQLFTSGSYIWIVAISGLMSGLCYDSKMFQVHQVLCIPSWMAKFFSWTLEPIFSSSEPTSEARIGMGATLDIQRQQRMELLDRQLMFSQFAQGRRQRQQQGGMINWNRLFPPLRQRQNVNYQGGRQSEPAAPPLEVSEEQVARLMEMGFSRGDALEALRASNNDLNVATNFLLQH
UniProt Q9UJT0: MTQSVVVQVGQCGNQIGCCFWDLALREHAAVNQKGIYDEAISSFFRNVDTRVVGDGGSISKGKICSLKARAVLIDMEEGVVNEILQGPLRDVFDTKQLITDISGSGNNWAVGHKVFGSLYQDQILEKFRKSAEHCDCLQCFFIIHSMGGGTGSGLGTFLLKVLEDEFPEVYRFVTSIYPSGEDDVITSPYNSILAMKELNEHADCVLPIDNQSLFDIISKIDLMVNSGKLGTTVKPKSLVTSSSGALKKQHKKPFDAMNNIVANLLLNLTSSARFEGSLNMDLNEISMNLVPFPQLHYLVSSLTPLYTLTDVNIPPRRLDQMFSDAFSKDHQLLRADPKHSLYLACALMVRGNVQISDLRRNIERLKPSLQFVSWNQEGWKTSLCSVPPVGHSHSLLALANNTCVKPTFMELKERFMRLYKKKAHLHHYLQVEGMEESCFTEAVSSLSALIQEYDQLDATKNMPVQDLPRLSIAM
UniProt Q9Y5U2: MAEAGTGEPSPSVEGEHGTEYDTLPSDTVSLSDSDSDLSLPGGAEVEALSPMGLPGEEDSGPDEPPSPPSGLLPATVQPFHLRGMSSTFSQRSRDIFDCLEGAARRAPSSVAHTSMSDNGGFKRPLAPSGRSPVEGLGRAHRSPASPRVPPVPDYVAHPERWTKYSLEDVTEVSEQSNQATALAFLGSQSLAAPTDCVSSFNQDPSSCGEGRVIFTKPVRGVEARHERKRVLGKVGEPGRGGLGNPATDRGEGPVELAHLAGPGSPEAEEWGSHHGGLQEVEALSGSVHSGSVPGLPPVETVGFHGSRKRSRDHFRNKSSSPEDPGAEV
UniProt Q9NUQ3: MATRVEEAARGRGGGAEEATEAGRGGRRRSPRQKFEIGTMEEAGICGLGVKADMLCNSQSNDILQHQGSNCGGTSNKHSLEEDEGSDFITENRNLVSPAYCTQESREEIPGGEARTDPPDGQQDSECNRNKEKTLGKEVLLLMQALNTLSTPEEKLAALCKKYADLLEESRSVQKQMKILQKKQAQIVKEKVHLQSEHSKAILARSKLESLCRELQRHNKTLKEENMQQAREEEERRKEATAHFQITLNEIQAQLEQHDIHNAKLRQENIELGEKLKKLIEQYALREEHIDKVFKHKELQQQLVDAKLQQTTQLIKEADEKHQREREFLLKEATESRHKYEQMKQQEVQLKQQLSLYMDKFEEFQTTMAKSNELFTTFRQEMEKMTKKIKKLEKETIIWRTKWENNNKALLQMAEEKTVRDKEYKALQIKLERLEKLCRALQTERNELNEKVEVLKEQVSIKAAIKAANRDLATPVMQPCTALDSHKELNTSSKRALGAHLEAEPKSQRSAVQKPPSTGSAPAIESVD
UniProt P10599: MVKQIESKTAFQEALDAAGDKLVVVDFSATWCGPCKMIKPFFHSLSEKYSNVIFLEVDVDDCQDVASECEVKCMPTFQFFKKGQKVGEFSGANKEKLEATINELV
UniProt Q15819: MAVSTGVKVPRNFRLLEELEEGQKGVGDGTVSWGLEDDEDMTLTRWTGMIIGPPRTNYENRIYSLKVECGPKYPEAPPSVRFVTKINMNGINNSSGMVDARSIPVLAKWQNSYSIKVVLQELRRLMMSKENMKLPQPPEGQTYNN
UniProt P0DPH7, whole entry, looked up: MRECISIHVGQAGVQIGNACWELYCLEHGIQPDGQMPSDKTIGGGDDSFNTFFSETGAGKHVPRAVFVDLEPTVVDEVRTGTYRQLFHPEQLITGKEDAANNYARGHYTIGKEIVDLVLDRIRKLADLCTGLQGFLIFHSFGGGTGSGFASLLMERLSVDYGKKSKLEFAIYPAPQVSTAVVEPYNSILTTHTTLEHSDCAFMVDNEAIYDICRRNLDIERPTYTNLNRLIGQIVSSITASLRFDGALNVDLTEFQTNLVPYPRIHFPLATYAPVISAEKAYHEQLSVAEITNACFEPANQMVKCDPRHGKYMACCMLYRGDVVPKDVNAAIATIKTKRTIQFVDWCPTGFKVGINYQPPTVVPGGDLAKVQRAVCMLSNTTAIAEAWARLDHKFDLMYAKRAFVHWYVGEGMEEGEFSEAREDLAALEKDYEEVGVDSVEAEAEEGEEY
UniProt Q9BQE3, whole entry, looked up: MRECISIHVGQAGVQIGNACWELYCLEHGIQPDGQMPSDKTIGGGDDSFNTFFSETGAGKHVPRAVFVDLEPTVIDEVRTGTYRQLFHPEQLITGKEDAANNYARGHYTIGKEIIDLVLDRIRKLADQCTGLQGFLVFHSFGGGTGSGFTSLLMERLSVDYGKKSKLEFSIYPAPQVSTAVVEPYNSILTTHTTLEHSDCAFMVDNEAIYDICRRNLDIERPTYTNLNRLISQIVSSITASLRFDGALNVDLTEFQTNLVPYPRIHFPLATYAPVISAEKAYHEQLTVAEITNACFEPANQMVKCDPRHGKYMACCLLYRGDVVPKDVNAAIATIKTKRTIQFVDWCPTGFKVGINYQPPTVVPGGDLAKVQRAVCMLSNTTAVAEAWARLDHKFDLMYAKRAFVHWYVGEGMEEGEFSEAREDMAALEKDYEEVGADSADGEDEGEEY
UniProt P83876: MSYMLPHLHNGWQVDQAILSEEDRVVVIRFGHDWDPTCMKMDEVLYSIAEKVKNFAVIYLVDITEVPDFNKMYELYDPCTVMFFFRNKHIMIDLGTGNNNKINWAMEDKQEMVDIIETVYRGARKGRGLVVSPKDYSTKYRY
UniProt Q9H4B7, whole entry, looked up: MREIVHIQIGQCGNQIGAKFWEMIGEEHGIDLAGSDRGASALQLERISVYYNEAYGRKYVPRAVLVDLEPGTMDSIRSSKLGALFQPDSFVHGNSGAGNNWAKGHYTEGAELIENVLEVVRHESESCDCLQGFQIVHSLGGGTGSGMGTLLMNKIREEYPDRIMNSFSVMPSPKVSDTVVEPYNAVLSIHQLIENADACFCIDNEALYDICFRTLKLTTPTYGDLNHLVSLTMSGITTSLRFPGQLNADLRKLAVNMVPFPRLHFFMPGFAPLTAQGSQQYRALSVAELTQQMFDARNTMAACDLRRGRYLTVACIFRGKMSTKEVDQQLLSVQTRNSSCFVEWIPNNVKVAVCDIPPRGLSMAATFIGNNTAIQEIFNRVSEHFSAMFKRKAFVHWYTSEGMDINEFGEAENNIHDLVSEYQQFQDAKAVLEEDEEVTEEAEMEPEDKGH
UniProt Q99598: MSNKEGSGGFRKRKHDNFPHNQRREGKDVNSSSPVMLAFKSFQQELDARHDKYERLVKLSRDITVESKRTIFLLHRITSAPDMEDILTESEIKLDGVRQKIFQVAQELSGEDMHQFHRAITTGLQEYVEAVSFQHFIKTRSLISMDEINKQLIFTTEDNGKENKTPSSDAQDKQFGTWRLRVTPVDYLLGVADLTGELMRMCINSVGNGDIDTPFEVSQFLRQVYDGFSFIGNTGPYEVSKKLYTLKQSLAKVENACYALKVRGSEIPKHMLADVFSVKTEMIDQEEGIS
UniProt Q05086: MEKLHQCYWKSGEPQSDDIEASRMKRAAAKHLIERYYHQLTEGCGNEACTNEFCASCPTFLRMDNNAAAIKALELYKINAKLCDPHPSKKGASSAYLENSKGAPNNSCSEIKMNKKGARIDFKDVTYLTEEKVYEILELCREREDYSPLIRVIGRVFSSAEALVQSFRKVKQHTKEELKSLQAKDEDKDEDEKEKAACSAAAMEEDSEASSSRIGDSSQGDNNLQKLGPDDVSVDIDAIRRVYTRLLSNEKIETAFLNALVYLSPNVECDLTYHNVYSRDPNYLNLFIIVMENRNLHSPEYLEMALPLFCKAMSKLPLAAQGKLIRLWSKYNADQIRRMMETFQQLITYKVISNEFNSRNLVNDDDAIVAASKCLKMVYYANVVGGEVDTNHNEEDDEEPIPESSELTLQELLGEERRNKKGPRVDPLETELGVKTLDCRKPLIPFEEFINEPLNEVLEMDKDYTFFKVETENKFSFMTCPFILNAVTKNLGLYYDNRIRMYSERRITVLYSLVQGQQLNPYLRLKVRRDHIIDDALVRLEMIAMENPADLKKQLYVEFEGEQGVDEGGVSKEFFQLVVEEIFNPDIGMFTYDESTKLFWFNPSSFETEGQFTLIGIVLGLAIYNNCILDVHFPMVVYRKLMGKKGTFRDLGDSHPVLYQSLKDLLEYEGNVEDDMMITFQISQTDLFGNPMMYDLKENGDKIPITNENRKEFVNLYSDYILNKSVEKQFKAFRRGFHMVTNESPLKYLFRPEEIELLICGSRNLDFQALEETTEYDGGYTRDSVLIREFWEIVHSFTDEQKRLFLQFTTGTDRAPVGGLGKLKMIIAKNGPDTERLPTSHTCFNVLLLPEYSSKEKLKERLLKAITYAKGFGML
UniProt Q13885, whole entry, looked up: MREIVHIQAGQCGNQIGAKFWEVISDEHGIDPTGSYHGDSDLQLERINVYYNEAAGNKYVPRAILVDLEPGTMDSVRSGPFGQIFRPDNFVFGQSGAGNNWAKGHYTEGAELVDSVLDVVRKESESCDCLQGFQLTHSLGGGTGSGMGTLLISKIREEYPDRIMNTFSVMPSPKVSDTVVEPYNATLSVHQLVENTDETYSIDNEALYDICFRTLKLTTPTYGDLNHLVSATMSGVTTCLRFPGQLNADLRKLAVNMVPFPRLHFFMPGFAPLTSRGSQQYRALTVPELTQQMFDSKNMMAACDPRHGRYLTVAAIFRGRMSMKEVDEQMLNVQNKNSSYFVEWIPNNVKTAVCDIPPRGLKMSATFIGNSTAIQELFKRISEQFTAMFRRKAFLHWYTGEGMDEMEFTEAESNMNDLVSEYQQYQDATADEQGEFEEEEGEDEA

Columns and labels:
Assay in all cases: log2 fold change, soluble protein after heating vs DMSO (PISA); higher = thermal stabilisation; K562 cells, 10 uM, 30 min; active = over 0.2 and 3.5 SD of the protein, either way, in both replicates (recomputed)
saracatinib = compound: CN1CCN(CCOc2cc(OC3CCOCC3)c3c(Nc4c(Cl)ccc5c4OCO5)ncnc3c2)CC1 [saracatinib]
Procedure, shortened: (§1)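 K562 cells at 2×10^6 cells/mL were treated for 30 min with 10 μM compound, and aliquots were heated for 3 min over 48°C-58°C before pooling. Extraction used PBS with 0.5% NP-40 at 4°C, and soluble protein was the supernatant after 21,000xg for 90 min, measured by TMTpro 16plex LC-MS/MS with channel sums equalised. Thermal stability values, relative to control samples and from duplicates, are log2 fold changes.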

sotrastaurin = compound: CN1CCN(c2nc(C3=C(c4c[nH]c5ccccc45)C(=O)NC3=O)c3ccccc3n2)CC1 [sotrastaurin]
Procedure, shortened: as §1

alvocidib = compound: CN1CC[C@H](c2c(O)cc(O)c3c(=O)cc(-c4ccccc4Cl)oc23)[C@H](O)C1 [alvocidib]
Procedure, shortened: as §1

Tubastatin A = compound: CN1CCc2c(c3ccccc3n2Cc2ccc(C(=O)NO)cc2)C1 [Tubastatin A]
Procedure, shortened: as §1

[1] = compound: CNC(=O)C1=CC=CC=C1NC2=NC(=NC=C2Cl)NC3=C(C=C(C=C3)N4CCOCC4)OC
Procedure, shortened: as §1

defactinib = compound: CNC(=O)c1ccc(Nc2ncc(C(F)(F)F)c(NCc3nccnc3N(C)S(C)(=O)=O)n2)cc1 [defactinib]
Procedure, shortened: as §1

rucaparib = compound: CNCc1ccc(-c2[nH]c3cc(F)cc4c3c2CCNC4=O)cc1 [rucaparib]
Procedure, shortened: as §1

[2] = compound: CNc1nc(-c2ccc3c(N)n[nH]c3c2)cc(N2C[C@@H](C(=O)NC3CCCCC3)CC[C@H]2C)n1
Procedure, shortened: as §1

encorafenib = compound: COC(=O)N[C@@H](C)CNc1nccc(-c2cn(C(C)C)nc2-c2cc(Cl)cc(NS(C)(=O)=O)c2F)n1 [encorafenib]
Procedure, shortened: as §1

[3] = compound: COC(=O)[C@H](CCSC)NC(=O)C1=C(C=C(C=C1)NC[C@H](CS)N)C2=CC=CC=C2
Procedure, shortened: as §1

Measured: log2 fold change

TSPO (UniProt P30536)
inactive: saracatinib 0.116 | sotrastaurin 0.047 | alvocidib 0.042 | Tubastatin A 0.026 | [1] 0.064 | defactinib -0.013 | rucaparib -0.097 | [2] -0.068 | encorafenib 0.009 | [3] 0.11

TTL (UniProt Q8NG68)
inactive: saracatinib 0 | sotrastaurin -0.052 | alvocidib -0.053 | Tubastatin A 0.047 | [1] -0.008 | defactinib 0.021 | rucaparib 0 | [2] -0.017 | encorafenib -0.022 | [3] -0.039

UBAC1 (UniProt Q9BSL1)
inactive: saracatinib 0.02 | sotrastaurin -0.07 | alvocidib -0.109 | Tubastatin A 0.059 | [1] 0.049 | defactinib -0.102 | rucaparib -0.072 | [2] -0.044 | encorafenib 0.024 | [3] -0.035

TUBB2B (UniProt Q9BVA1)
inactive: saracatinib 0.013 | sotrastaurin 0.06 | alvocidib 0.172 | Tubastatin A -0.062 | [1] -0.048 | defactinib 0.026 | rucaparib 0.022 | [2] 0.087 | encorafenib -0.04 | [3] -0.158

TTC9C (UniProt Q8N5M4)
inactive: saracatinib -0.032 | sotrastaurin -0.08 | alvocidib -0.053 | Tubastatin A 0.059 | [1] 0.092 | defactinib -0.083 | rucaparib 0.017 | [2] -0.063 | encorafenib 0.032 | [3] -0.042

UBE2N (UniProt P61088)
inactive: saracatinib -0.002 | sotrastaurin -0.021 | alvocidib -0.017 | Tubastatin A 0.037 | [1] -0.027 | defactinib 0.024 | rucaparib -0.043 | [2] 0.004 | encorafenib -0.018 | [3] -0.032

UAP1 (UniProt Q16222)
inactive: saracatinib -0.006 | sotrastaurin 0.012 | alvocidib -0.06 | Tubastatin A -0.019 | [1] 0.116 | defactinib 0.011 | rucaparib -0.014 | [2] -0.018 | encorafenib -0.017 | [3] 0

TXNDC15 (UniProt Q96J42)
inactive: saracatinib -0.037 | sotrastaurin 0.002 | alvocidib -0.011 | Tubastatin A 0.074 | [1] -0.038 | defactinib 0.039 | rucaparib -0.083 | [2] 0.287 | encorafenib 0.01 | [3] -0.093

UBAC2 (UniProt Q8NBM4)
inactive: saracatinib 0.108 | sotrastaurin -0.021 | alvocidib -0.061 | Tubastatin A 0.051 | [1] -0.02 | defactinib 0.063 | rucaparib 0.173 | [2] -0.148 | encorafenib 0.063 | [3] -0.053

TTN isoform 12 (UniProt Q8WZ42)
inactive: saracatinib -0.139 | sotrastaurin 0.103 | alvocidib 0.1 | Tubastatin A 0.054 | [1] -0.039 | defactinib 0.03 | rucaparib 0.061 | [2] -0.091 | encorafenib -0.035 | [3] 0.076

TTC19 (UniProt Q6DKK2)
inactive: saracatinib -0.01 | sotrastaurin -0.008 | alvocidib 0.047 | Tubastatin A 0.024 | [1] -0.008 | defactinib -0.034 | rucaparib 0.027 | [2] 0.006 | encorafenib -0.009 | [3] -0.01

UBA2 (UniProt Q9UBT2)
inactive: saracatinib 0.002 | sotrastaurin -0.018 | alvocidib -0.117 | Tubastatin A 0.001 | [1] 0.087 | defactinib -0.066 | rucaparib -0.063 | [2] -0.04 | encorafenib 0.011 | [3] -0.008

TSEN54 (UniProt Q7Z6J9)
inactive: saracatinib -0.098 | sotrastaurin -0.006 | alvocidib -0.082 | Tubastatin A 0 | [1] -0.181 | defactinib 0.012 | rucaparib -0.214 | [2] 0.119 | encorafenib -0.005 | [3] -0.013

TUBE1 (UniProt Q9UJT0)
inactive: saracatinib -0.002 | sotrastaurin 0.009 | alvocidib -0.001 | Tubastatin A 0.051 | [1] -0.028 | defactinib 0.037 | rucaparib 0.039 | [2] -0.019 | encorafenib -0.03 | [3] 0.046

TSSC4 (UniProt Q9Y5U2)
inactive: saracatinib -0.091 | sotrastaurin 0.042 | alvocidib 0.066 | Tubastatin A -0.056 | [1] 0.062 | defactinib 0.111 | rucaparib 0.021 | [2] 0.084 | encorafenib -0.124 | [3] 0.088

TXLNG (UniProt Q9NUQ3)
inactive: saracatinib -0.036 | sotrastaurin -0.041 | alvocidib 0.011 | Tubastatin A -0.021 | [1] -0.027 | defactinib -0.024 | rucaparib -0.024 | [2] -0.028 | encorafenib 0.001 | [3] -0.006

TXN (UniProt P10599)
inactive: saracatinib 0.049 | sotrastaurin 0.07 | alvocidib -0.001 | Tubastatin A -0.041 | [1] -0.024 | defactinib -0.01 | rucaparib -0.06 | [2] -0.029 | encorafenib -0.013 | [3] 0.08

UBE2V2 (UniProt Q15819)
inactive: saracatinib 0.012 | sotrastaurin 0.029 | alvocidib -0.047 | Tubastatin A -0.007 | [1] -0.009 | defactinib -0.009 | rucaparib 0.052 | [2] 0.005 | encorafenib -0.046 | [3] 0.009

UBE2Z (UniProt Q9H832)
inactive: saracatinib 0.012 | sotrastaurin -0.024 | alvocidib -0.058 | Tubastatin A 0.017 | [1] 0.012 | defactinib -0.042 | rucaparib 0.009 | [2] -0.052 | encorafenib 0.003 | [3] 0.012

TUBB4B (UniProt P68371)
inactive: saracatinib 0.013 | sotrastaurin 0.009 | alvocidib -0.081 | Tubastatin A -0.078 | [1] -0.065 | defactinib -0.042 | rucaparib -0.013 | [2] -0.011 | encorafenib -0.02 | [3] -0.019

TUBA3C (UniProt P0DPH7)
inactive: saracatinib 0.065 | sotrastaurin 0.051 | alvocidib -0.032 | Tubastatin A -0.08 | [1] -0.03 | defactinib -0.029 | rucaparib -0.053 | [2] 0.014 | encorafenib 0.187 | [3] 0.012

TUBA1C (UniProt Q9BQE3)
inactive: saracatinib 0.057 | sotrastaurin -0.008 | alvocidib -0.021 | Tubastatin A -0.032 | [1] 0.005 | defactinib -0.066 | rucaparib 0.034 | [2] 0.048 | encorafenib -0.019 | [3] 0.003

TUBB4A (UniProt M0QYM7)
inactive: saracatinib -0.218 | sotrastaurin 0.148 | alvocidib -0.049 | Tubastatin A 0.293 | [1] 0.036 | defactinib 0.17 | rucaparib -0.16 | [2] -0.065 | encorafenib -0.036 | [3] 0.111

TXNL4A (UniProt P83876)
inactive: saracatinib 0.077 | sotrastaurin 0.067 | alvocidib -0.007 | Tubastatin A -0.013 | [1] -0.026 | defactinib 0.03 | rucaparib -0.016 | [2] -0.039 | encorafenib -0.045 | [3] -0.023

TUBB1 (UniProt Q9H4B7)
inactive: saracatinib 0.06 | sotrastaurin -0.032 | alvocidib -0.089 | Tubastatin A -0.001 | [1] -0.053 | defactinib -0.025 | rucaparib -0.045 | [2] 0.047 | encorafenib 0.011 | [3] -0.003

TXNDC11 (UniProt Q6PKC3)
inactive: saracatinib -0.053 | sotrastaurin 0.009 | alvocidib -0.057 | Tubastatin A 0.067 | [1] 0.005 | defactinib -0.009 | rucaparib -0.083 | [2] -0.022 | encorafenib 0.038 | [3] -0.028

2 records picked at random from those above, as already listed:
TUBB4B (UniProt P68371)
inactive: saracatinib 0.013 | sotrastaurin 0.009 | alvocidib -0.081 | Tubastatin A -0.078 | [1] -0.065 | defactinib -0.042 | rucaparib -0.013 | [2] -0.011 | encorafenib -0.02 | [3] -0.019

TXNDC15 (UniProt Q96J42)
inactive: saracatinib -0.037 | sotrastaurin 0.002 | alvocidib -0.011 | Tubastatin A 0.074 | [1] -0.038 | defactinib 0.039 | rucaparib -0.083 | [2] 0.287 | encorafenib 0.01 | [3] -0.093

More results.

TSNAX (UniProt Q99598)
inactive: saracatinib 0.035 | sotrastaurin 0.044 | alvocidib -0.002 | Tubastatin A 0.009 | [1] -0.006 | defactinib -0.006 | rucaparib 0.014 | [2] -0.053 | encorafenib -0.017 | [3] 0.005

UBE3A (UniProt Q05086)
inactive: saracatinib 0.022 | sotrastaurin 0.009 | alvocidib -0.029 | Tubastatin A 0.035 | [1] -0.027 | defactinib -0.026 | rucaparib -0.016 | [2] -0.014 | encorafenib -0.01 | [3] 0.015

TUBB2A (UniProt Q13885)
inactive: saracatinib 0.048 | sotrastaurin 0.032 | alvocidib -0.004 | Tubastatin A -0.07 | [1] -0.069 | defactinib 0.003 | rucaparib -0.052 | [2] -0.024 | encorafenib -0.02 | [3] 0.052
